From paper PMC8786944 come the findings set out here.

The chains behind the UniProt entries cited, without tags or fusion partners. Where a name states a change or a piece, a line headed by the entry shows the natural chain unless it says otherwise. A line that says so, or that is headed by a name, gives the form on record, which may keep a tag or linker.
Nogo-B (neurite outgrowth inhibitor B)-flag (Q9NQC3-2, form named): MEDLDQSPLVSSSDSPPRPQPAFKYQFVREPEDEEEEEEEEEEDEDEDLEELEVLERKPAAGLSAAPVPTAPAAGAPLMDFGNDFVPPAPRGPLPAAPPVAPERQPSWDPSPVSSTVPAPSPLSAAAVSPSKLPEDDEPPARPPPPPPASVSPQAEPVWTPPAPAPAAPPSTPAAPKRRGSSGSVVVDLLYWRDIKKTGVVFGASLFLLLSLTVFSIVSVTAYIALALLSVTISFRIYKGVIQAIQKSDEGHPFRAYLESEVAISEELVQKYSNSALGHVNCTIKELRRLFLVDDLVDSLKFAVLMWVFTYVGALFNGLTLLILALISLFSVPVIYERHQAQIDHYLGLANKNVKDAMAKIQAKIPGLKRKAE

One assay has as its target T1, NgR3-myc (UniProt Q86UN2).
T1 sequence: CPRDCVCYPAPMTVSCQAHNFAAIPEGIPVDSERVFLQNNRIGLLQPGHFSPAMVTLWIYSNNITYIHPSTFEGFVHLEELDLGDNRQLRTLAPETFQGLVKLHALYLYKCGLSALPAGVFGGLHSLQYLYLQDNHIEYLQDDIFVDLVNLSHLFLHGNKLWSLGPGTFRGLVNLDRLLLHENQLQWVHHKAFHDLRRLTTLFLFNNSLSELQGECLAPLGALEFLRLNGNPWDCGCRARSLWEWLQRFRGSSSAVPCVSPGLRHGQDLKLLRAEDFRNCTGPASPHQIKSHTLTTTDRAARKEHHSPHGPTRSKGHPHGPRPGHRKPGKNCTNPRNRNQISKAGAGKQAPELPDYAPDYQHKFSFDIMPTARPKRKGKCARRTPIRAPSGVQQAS
As to the kind of experiment: co-IP; lysates of HEK293T cells transfected with NgR3-myc and Nogo-B-flag; IP with anti-flag or anti-myc antibody on Protein A/G beads at 4 °C overnight; five washes with cold IP buffer; Western blotting.

The target in assay [1] is Nogo-B (neurite outgrowth inhibitor B)-flag (human) (UniProt Q9NQC3). Described as above.

Results are given in words; binding and its absence hold for the method and conditions named. Binding seen in cells or lysates may run through a third protein. Some results given as binding are weak or reduced against the parent protein; the word gives no strength. Tags and fused reporters may be left off the sequences shown.

Consider “Nogo-B (neurite outgrowth inhibitor B)-flag (from UniProt Q9NQC3-2 1-373)”, for which the binding entry in the assay with NgR3-myc is reported as “binds”.

B1: NgR3-myc (receptor, UniProt Q86UN2 25-420)
chain: T1 sequence
As to B1, the binding result in assay [1] was “binds”.
